PubChem BioAssay AID1259254 | NCATS, 2017
In all, the deposit lists about 59,000 reagents; shown is a random part of them. Of all reagents, about 1,550 (2.6%) are marked active. 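G2 share is only a proxy for re-replication; each gene was hit by three separate siRNAs, and active genes were retested.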 The numbers tell different reagents against one gene apart. Further read-outs or replicates are left out here. Not given: the amount of reagent.

- Aim: 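Genome-wide screen for genes that prevent DNA re-replication in cancer cells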 (primary screen)
- System: human HCT116 colorectal cancer cells
- Reagents: single siRNA against human genes
- Time to read-out: 3 days
- Read-out: 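Imaged Hoechst DNA stain sorts each cell into a cycle phase by DNA amount; per plate, G2 fraction set to 0% for non-targeting and 100% for GMNN siRNA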
- Direction: G2 robust z-score and G2 cells, % of GMNN control: higher = more G2 cells, more excess DNA replication
- Hit rule: 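An siRNA counts as active if its G2 robust z-score lies at least 5 MADs above the screen median; here such calls match roughly 38% of GMNN control or more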

{"target": "GCC2 (GRIP and coiled-coil domain containing 2)", "reagent no.": 1, "G2 robust z-score": 2.13, "G2 cells, % of GMNN control": 17.9, "Call": "inactive"}
{"target": "GCC2 (GRIP and coiled-coil domain containing 2)", "reagent no.": 2, "G2 robust z-score": -0.375, "G2 cells, % of GMNN control": 0.329, "Call": "inactive"}
{"target": "GCC2 (GRIP and coiled-coil domain containing 2)", "reagent no.": 3, "G2 robust z-score": 0.183, "G2 cells, % of GMNN control": 4.26, "Call": "inactive"}
{"target": "LINC01257 (long independently transcribed non-coding RNA 1257)", "reagent no.": 1, "G2 robust z-score": 1.34, "G2 cells, % of GMNN control": 12.4, "Call": "inactive"}
{"target": "LINC01257 (long independently transcribed non-coding RNA 1257)", "reagent no.": 2, "G2 robust z-score": -0.69, "G2 cells, % of GMNN control": -1.89, "Call": "inactive"}
{"target": "LINC01257 (long independently transcribed non-coding RNA 1257)", "reagent no.": 3, "G2 robust z-score": -0.403, "G2 cells, % of GMNN control": 0.131, "Call": "inactive"}
{"target": "DIPK1A (divergent protein kinase domain 1A)", "reagent no.": 1, "G2 robust z-score": -0.294, "G2 cells, % of GMNN control": 0.9, "Call": "inactive"}
{"target": "DIPK1A (divergent protein kinase domain 1A)", "reagent no.": 2, "G2 robust z-score": 0.774, "G2 cells, % of GMNN control": 8.41, "Call": "inactive"}
{"target": "DIPK1A (divergent protein kinase domain 1A)", "reagent no.": 3, "G2 robust z-score": -0.275, "G2 cells, % of GMNN control": 1.03, "Call": "inactive"}
{"target": "ALPL (alkaline phosphatase, biomineralization associated)", "reagent no.": 1, "G2 robust z-score": 3.41, "G2 cells, % of GMNN control": 27, "Call": "inactive"}
{"target": "ALPL (alkaline phosphatase, biomineralization associated)", "reagent no.": 2, "G2 robust z-score": -0.721, "G2 cells, % of GMNN control": -2.1, "Call": "inactive"}
{"target": "ALPL (alkaline phosphatase, biomineralization associated)", "reagent no.": 3, "G2 robust z-score": -0.13, "G2 cells, % of GMNN control": 2.05, "Call": "inactive"}
{"target": "GIT1 (GIT ArfGAP 1)", "reagent no.": 1, "G2 robust z-score": -0.21, "G2 cells, % of GMNN control": 1.49, "Call": "inactive"}
{"target": "GIT1 (GIT ArfGAP 1)", "reagent no.": 2, "G2 robust z-score": 0.603, "G2 cells, % of GMNN control": 7.21, "Call": "inactive"}
{"target": "GIT1 (GIT ArfGAP 1)", "reagent no.": 3, "G2 robust z-score": -0.897, "G2 cells, % of GMNN control": -3.35, "Call": "inactive"}
{"target": "WWTR1 (WW domain containing transcription regulator 1)", "reagent no.": 1, "G2 robust z-score": 0.354, "G2 cells, % of GMNN control": 5.46, "Call": "inactive"}
{"target": "WWTR1 (WW domain containing transcription regulator 1)", "reagent no.": 2, "G2 robust z-score": 2.7, "G2 cells, % of GMNN control": 22, "Call": "inactive"}
{"target": "WWTR1 (WW domain containing transcription regulator 1)", "reagent no.": 3, "G2 robust z-score": -0.254, "G2 cells, % of GMNN control": 1.18, "Call": "inactive"}
{"target": "ZMYM4 (zinc finger MYM-type containing 4)", "reagent no.": 1, "G2 robust z-score": -0.315, "G2 cells, % of GMNN control": 0.752, "Call": "inactive"}
{"target": "ZMYM4 (zinc finger MYM-type containing 4)", "reagent no.": 2, "G2 robust z-score": -0.183, "G2 cells, % of GMNN control": 1.68, "Call": "inactive"}
{"target": "ZMYM4 (zinc finger MYM-type containing 4)", "reagent no.": 3, "G2 robust z-score": 1.86, "G2 cells, % of GMNN control": 16.1, "Call": "inactive"}
{"target": "ARRDC5 (arrestin domain containing 5)", "reagent no.": 1, "G2 robust z-score": -0.445, "G2 cells, % of GMNN control": -0.166, "Call": "inactive"}
{"target": "ARRDC5 (arrestin domain containing 5)", "reagent no.": 2, "G2 robust z-score": -0.458, "G2 cells, % of GMNN control": -0.252, "Call": "inactive"}
{"target": "ARRDC5 (arrestin domain containing 5)", "reagent no.": 3, "G2 robust z-score": -0.366, "G2 cells, % of GMNN control": 0.395, "Call": "inactive"}

2 entries from above, ordered by “G2 robust z-score”, low to high.
{"target": "DIPK1A (divergent protein kinase domain 1A)", "reagent no.": 3, "G2 robust z-score": -0.275, "G2 cells, % of GMNN control": 1.03, "Call": "inactive"}
{"target": "ALPL (alkaline phosphatase, biomineralization associated)", "reagent no.": 1, "G2 robust z-score": 3.41, "G2 cells, % of GMNN control": 27, "Call": "inactive"}
